Values joined by “and” are separate entries in the source; they are usually repeats but may differ in a detail not shown here. Equal entries are not always repeated. This is one part of the list. Shown are side measurements of this screen, not its main read-out; they come without a call. The list favours compounds with an active or inconclusive main result. Words in brackets tell the shape of the fitted curve; partial curves, single points and poor fits give uncertain potencies.
Test: qHTS Assay for Lipid Storage Modulators in Drosophila S3 Cells;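 on cell number change: cells counted by Cell Tracker Red CMTPX staining in the red channel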
Conditions: BODIPY lipid droplet fluorescence, 18-24 h; for cell number change: measured here: cell count max response, cells fed with added oleic acid
In short: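 Laser-scanning cytometry quantifies lipid droplet accumulation (500–530 nm total intensity; droplet/cell object ratio) in oleic acid-fed (400 uM added) Drosophila S3 cells treated with a concentration series. 20 uM Triacsin C defined 100% inhibition.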

[1] = measured here: lipid fluorescence (Fed channel) AC50, cells fed with added oleic acid
[2] = measured here: cell number channel AC50, cells fed with added oleic acid

Compound | AC50 [1] | cell number change | AC50 [2]
CCOC(=O)c1ccc(NC(=O)CCNS(=O)(=O)c2cc(Br)cnc2N)cc1 | 6.51 µM [rising, partial curve] |  | 
COc1ccc(Cl)cc1S(=O)(=O)N(C)CC(=O)N1CCOCC1 |  | -11.8% | 
O=C(COC(=O)CCCSc1nc2ccccc2[nH]1)Nc1cccc(F)c1 | 0.146 µM [rising, full curve, poor fit] | 9.12% | 
COc1ccccc1NC(=O)c1ccc(NC(=O)CSc2ncccn2)cc1 | 29.1 µM [rising, single point] | 56.3% | 20.6 µM [rising, single point]
CS(=O)(=O)N(CC(=O)Nc1ccc2c(c1)OCO2)Cc1ccc(Cl)cc1 | 6.51 µM [rising, single point] | 39.3% | 8.2 µM [rising, partial curve]
CCCOc1ccc(N2CC(C(=O)Nc3ccccc3C(=O)NCc3ccco3)CC2=O)cc1 (stereo not given) | 0.651 µM [rising, full curve] |  | 1.3 µM [rising, partial curve]
COc1cc2cc(CN(CCO)S(=O)(=O)c3ccccc3)c(=O)[nH]c2cc1OC |  | 40.6% | 9.2 µM [rising, partial curve]
Cc1cc(NC(=O)NC(=O)c2cccc(OC(F)(F)C(F)F)c2)n[nH]1 | 1.03 µM [falling, single point] |  | 
O=C1c2ccccc2NC(c2ccc3c(c2)OCO3)N1O (stereo not given) |  | -2.23% | 
N#C/C(=C\c1ccccc1)C(=O)N1CCN(c2ccccc2F)CC1 |  | 13.7% | 
CCN1C(=O)/C(=C/c2ccc(C)o2)N(C)C1=S | 23.1 µM [falling, partial curve] | -38.6% | 9.2 µM [falling, partial curve]
COc1ccc(C(=O)Nc2ccnn2C2CCN(Cc3ccncc3)CC2)cc1 |  | -21.8% | 
O=C(N/C(=C\c1ccco1)C(=O)N1CCCC1)c1cccs1 | 0.731 µM [rising, single point] |  | 
Cc1ccc(S(=O)(=O)N2CCN(C(=O)CCC(=O)NC3CCCc4ccccc43)CC2)cc1 (stereo not given) |  | -0.487% | 
Cc1cc(N2CCCC2)ccc1NC(=O)COc1cccc(C(F)(F)F)c1 | 29.1 µM [falling, single point] | -22.2% | 
NS(=O)(=O)c1cccc(NC(=O)CCN2C(=O)C3CCCCC3C2=O)c1 (stereo not given) |  | -4.53% | 
CCOc1ccc(N/C=C/C(=O)c2ccc(OC)cc2)c([N+](=O)[O-])c1 |  | -8.22% | 
Cc1ccc(C(=O)NCCn2ccc3ccccc32)cc1[N+](=O)[O-] | 5.8 µM [falling, single point] | 7.35% | 5.8 µM [falling, single point]
O=C(c1ccccc1)N1CCN(C(=O)N2CCOCC2)CC1 | 2.91 µM [rising, single point] | -34.1% | 29.1 µM [falling, single point]
COc1ccc(/C=C2\CCCC3C2=NN(C(=O)c2scnc2C)C3c2ccc(OC)c(OC)c2)cc1OC (stereo not given) | 0.58 µM [rising, single point] | -1.47% | 0.291 µM [rising, partial curve, poor fit]

Rewritten tab-delimited: part of the list above
Compound	AC50 [1]	cell number change	AC50 [2]
CCCOc1ccc(N2CC(C(=O)Nc3ccccc3C(=O)NCc3ccco3)CC2=O)cc1 (stereo not given)	0.651 µM [rising, full curve]		1.3 µM [rising, partial curve]
O=C1c2ccccc2NC(c2ccc3c(c2)OCO3)N1O (stereo not given)		-2.23%	
CCN1C(=O)/C(=C/c2ccc(C)o2)N(C)C1=S	23.1 µM [falling, partial curve]	-38.6%	9.2 µM [falling, partial curve]
Cc1ccc(S(=O)(=O)N2CCN(C(=O)CCC(=O)NC3CCCc4ccccc43)CC2)cc1 (stereo not given)		-0.487%	

Following part

Compound | AC50 [1] | cell number change | AC50 [2]
Cc1cc(C)n2nc(SCC(=O)Nc3ccc(S(=O)(=O)N(C)C)cc3)nc2n1 |  | -30.1% | 14.6 µM [falling, partial curve]
N#CC1=C(S)N(c2ccccc2)C(c2ccco2)NC1=O (stereo not given) | 29.1 µM [falling, single point] | -32.1% | 25.9 µM [falling, single point]
CCc1ccc(-c2csc(NC(=O)c3cccnc3)n2)cc1 | 23.1 µM [rising, partial curve] | 3.82% | 6.51 µM [falling, single point]
Cc1[nH]c(C)c(S(=O)(=O)NCCc2ccccc2)c1C(=O)N1CCCCC1 | 6.51 µM [falling, partial curve, poor fit] |  | 
Cc1nc2ccccc2c(=O)n1/N=C/c1ccccc1Cl | 20.6 µM [falling, single point] | 15.5% | 
COc1ccc(C2C(C#N)=C(SCC(=O)Nc3ccc(C)cc3)NC3=C2C(=O)CC(C)(C)C3)cc1 (stereo not given) | 1.46 µM [rising, full curve, poor fit] | -7.41% | 
COc1c(C)cccc1C(=O)Nc1ccc(N2CCN(C(=O)c3ccccc3C)CC2)cc1 | 25.9 µM [falling, partial curve, poor fit] | -44% | 32.6 µM [falling, single point]
Cc1ccc(S(=O)(=O)N2[C@@H](c3cccc(Cl)c3)C(C(=O)O)=CC[C@H]2c2cccc(C)c2)cc1 | 0.651 µM [falling, single point] | 27.9% | 
COc1ccc(C2C(C(=O)c3ccco3)=C(O)C(=O)N2c2nnc(C)s2)cc1OC (stereo not given) | 0.13 µM [falling, full curve, poor fit] | 11.3% | 
CC(=O)Nc1cc(Br)ccc1O |  | 7.64% | 
CCOC(=O)N1CCC(NC(=O)C2CCCN(S(=O)(=O)c3cccc4nsnc34)C2)CC1 (stereo not given) | 6.51 µM [rising, single point] | 5.66% | 
CCOc1ccc(CC(=O)Nc2ccc(S(=O)(=O)N3CCCC3)cc2)cc1 |  | -19.1% | 
CC1=C(C#N)C(/C=N/OCc2ccc(F)cc2Cl)CC(=O)N1 (stereo not given) | 0.82 µM [falling, full curve] | 0.521% | 0.0291 µM [falling, full curve, poor fit]
COC(=O)c1ccc(C(=O)N=c2sccn2C)cc1 |  | 22.6% | 
COc1ccc(CNC(=O)CNC(=O)CNS(=O)(=O)c2ccc(C)c(C)c2)cc1 | 0.00461 µM [rising, full curve, poor fit] | -0.952% | 
COc1ccc(S(=O)(=O)N(CC(=O)N2CCN(C)CC2)c2ccc(C)cc2)cc1Br | 6.51 µM [rising, partial curve, poor fit] | -6.08% | 
COc1ccc(S(=O)(=O)N2CCOCC2)cc1NC(=O)CSc1ccccc1 |  | 3.59% | 
CCCn1nnnc1NC(=O)CSc1ccc(Cl)cc1 | 0.517 µM [falling, full curve] | -17.3% | 
CCOc1ccc(NC(=O)/C(C=Nc2ccccc2)=C(\C)O)cc1 |  | 18.3% | 
CCc1noc(C)c1C(=O)NCCN1C(=O)S/C(=C\c2ccc(OC)cc2)C1=O | 8.2 µM [falling, partial curve] | 217% | 23.1 µM [rising, partial curve]

Compound | AC50 [1] | cell number change | AC50 [2]
Clc1ccccc1-c1ccc2ncnc(NCc3ccc4c(c3)OCO4)c2c1 | 29.1 µM [falling, single point] and 23.1 µM [rising, single point] | -16% and 16.6% | 
O=C(/C=C/c1ccccc1)NC(=S)Nc1ccc(N2CCOCC2)c(Cl)c1 |  | -16.3% | 1.84 µM [falling, partial curve, poor fit]
CC(=O)N1CCOc2ccc(S(=O)(=O)NCCc3ccccc3)cc21 | 0.651 µM [rising, single point] |  | 
NC(=O)c1cc(C(=O)c2ccc(Cl)cc2)c[nH]1 | 1.03 µM [falling, full curve] | -44% | 1.3 µM [falling, full curve]
COc1cc(CNCCc2ccccc2F)ccc1OCc1ccc(Cl)nc1 | 6.51 µM [falling, single point] | 112% | 
O=C1CSC(=Nc2cccc([N+](=O)[O-])c2)N1 | 6.51 µM [falling, partial curve] | -20.8% | 
CCOC(=O)Cn1nnnc1CN(Cc1ccc(OC)cc1)Cc1cc2cc(CC)ccc2[nH]c1=O | 0.164 µM [rising, full curve, poor fit] | 21.7% | 
O=C(N/N=C/c1ccc(O)cc1)c1ccc(COc2cc(Cl)ccc2Cl)o1 | 29.1 µM [falling, single point] | -18% | 
Cc1ncoc1C(=O)Nc1ccc2c(c1)OCCO2 | 0.326 µM [rising, single point] | -11.3% | 
Cc1c(NC(=S)NC(=O)c2ccccc2Br)c(=O)n(-c2ccccc2)n1C |  | -8.33% | 
CC(=O)C1=C(O)C(=O)N(Cc2cccnc2)C1c1ccc(O)cc1 (stereo not given) |  | 23.8% | 
CCCN1CCc2c(sc3nc(SCC)n(-c4ccccc4)c(=O)c23)C1 | 29.1 µM [falling, single point] | 33.3% | 
Nc1cc(S(=O)(=O)C(F)(F)F)ccc1C(=O)O | 1.84 µM [rising, partial curve] | 3.03% | 
O=C(N/N=C/c1ccc(-c2cccc(C(F)(F)F)c2)o1)c1ccccc1O | 7.31 µM [falling, single point] | -11.7% | 
CCOC(=O)c1cnc2ccc(OCC)cc2c1N1CCN(c2ccccc2OC)CC1 | 10.3 µM [rising, partial curve] | 79.8% | 2.06 µM [rising, full curve, poor fit]
N=c1n(CCN2CCCCC2)c2ccccc2n1CC(O)c1cccc(Br)c1 (stereo not given) | 29.1 µM [rising, partial curve] | -36.5% | 23.1 µM [falling, single point]
Cc1c(Cl)cccc1NC(=S)N1CCc2ccccc2C1 |  | 1.23% | 
CCSc1nnc(-c2cc(Br)ccc2NC(C)=O)c(=O)[nH]1 |  | -4.63% | 6.51 µM [rising, single point]
C/C(=C\C(=O)O)CC(=O)O | 29.1 µM [falling, single point] | -68.2% | 20.6 µM [falling, single point]
COc1ccc(/C=N/Nc2nnc(Cc3ccc(OC)c(OC)c3)c(=O)[nH]2)cc1 | 0.366 µM [rising, partial curve] | 18.2% | 

Source: PubChem BioAssay AID2685 (National Center for Advancing Translational Sciences (NCATS), 2010)
